Results from PMC5853894.
No constants are given. Whether binding was seen depends on the method and setting. In cells and extracts the contact can be indirect. Binding can be weak; no strength is given. Tags and fused reporters may be left off the sequences shown.

B1: cis-prenyltransferase CPT6 fused to mCherry (enzyme, UniProt Q8W3U4 1-284)
chain: MELYNGERPSVFRLLGKYMRKGLYSILTQGPIPTHIAFILDGNGRFAKKHKLPEGGGHKAGFLALLNVLTYCYELGVKYATIYAFSIDNFRRKPHEVQYVMNLMLEKIEGMIMEESIINAYDICVRFVGNLKLLDEPLKTAADKIMRATAKNSKFVLLLAVCYTSTDEIVHAVEESSKDKLKSDEICNDGNGDCVIKIEEMEPYSEIKLVELERNTYINPYPDVLIRTSGETRLSNYLLWQTTNCILYSPHALWPEIGLRHVVWAVINCQRHYSYLEKHKEYLK
B2: rubber elongation factor (REF) fused to mCherry (protein, UniProt P15252 1-138)
chain: MAEDEDNQQGQGEGLKYLGFVQDAATYAVTTFSNVYLFAKDKSGPLQPGVDIIEGPVKNVAVPLYNRFSYIPNGALKFVDSTVVASVTIIDRSLPPIVKDASIQVVSAIRAAPEAARSLASSLPGQTKILAKVFYGEN

Molecular target: Hevea rubber transferase 1-REF bridging protein (HRBP) fused to CFP (Hevea brasiliensis)
Test: co-IP; N. benthamiana leaves co-infiltrated with pairs of constructs, homogenised after 3 d in 150 mM Tris-HCl pH 7.5, 150 mM NaCl, 1.5% Triton X-100; GFPTrap or RFPTrap beads, 2 h at 4 °C; immunoblot with anti-GFP or anti-RFP; done in both directions

Row | Binder | binding
1 | B1 | binds
2 | B2 | no binding
